According to article PMC9798971, “Alarming and Calming: Opposing Roles of S100A8/S100A9 Dimers and Tetramers on Monocytes” (Advanced Science, 2022):
These are yes or no findings as the source states them, for the method shown. Some entries that bind do so weakly or less than the wild type. Sequences can lack the tags named with a protein.

T1: recombinant mouse CD69, His-tagged extracellular domain (mouse) (UniProt P37217)
T1 sequence: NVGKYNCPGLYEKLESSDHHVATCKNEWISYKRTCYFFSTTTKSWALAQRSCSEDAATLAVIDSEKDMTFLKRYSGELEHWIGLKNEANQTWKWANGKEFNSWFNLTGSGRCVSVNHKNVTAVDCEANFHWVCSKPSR

T2: S100A8/S100A9-tetramer (murine) (murine, UniProt P27005 1-89; P31725 1-113)
T2 chain 1: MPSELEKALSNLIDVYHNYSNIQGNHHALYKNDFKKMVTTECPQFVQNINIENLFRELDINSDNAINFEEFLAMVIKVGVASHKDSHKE
T2 chain 2: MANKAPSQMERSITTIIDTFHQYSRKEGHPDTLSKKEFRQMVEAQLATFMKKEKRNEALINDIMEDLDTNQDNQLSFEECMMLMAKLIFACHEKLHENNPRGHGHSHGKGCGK


Legend:
[1] = target: T1, recombinant mouse CD69, His-tagged extracellular domain (mouse); assay: quartz crystal microbalance with dissipation (QCM-D); His-tagged CD69 extracellular domain (250 nM) anchored on a DOPC/DGS-Ni-NTA (96:4) supported lipid bilayer on the sensor; S100 proteins (1 µg mL^-1) perfused; 20 °C; HBS (10 mM HEPES, 150 mM NaCl, pH 7.4) with 250 µM CaCl2; imidazole at the end; both purified
[2] = target: T2, S100A8/S100A9-tetramer (murine); assay: ELISA; titration ELISA: 10 nM S100A8/S100A9-tetramer coated (HBS plus 250 µM CaCl2); His-tagged CD69 added at increasing concentrations for 1 h; detected with anti-His antibody; non-linear regression, 1:1 model of one tetramer binding one CD69-dimer; both purified

binding [1] | binding [2] | Binder
binds | – | S100A8/S100A9-tetramer (murine) (complex, UniProt P27005 1-89; P31725 1-113) chain 1: MPSELEKALSNLIDVYHNYSNIQGNHHALYKNDFKKMVTTECPQFVQNINIENLFRELDINSDNAINFEEFLAMVIKVGVASHKDSHKE chain 2: MANKAPSQMERSITTIIDTFHQYSRKEGHPDTLSKKEFRQMVEAQLATFMKKEKRNEALINDIMEDLDTNQDNQLSFEECMMLMAKLIFACHEKLHENNPRGHGHSHGKGCGK
no binding (tested: 1 µg mL^-1) | – | S100A8/S100A9-N70A-heterodimer (murine) (complex, UniProt P27005 1-89; P31725 1-113) chain 1: MPSELEKALSNLIDVYHNYSNIQGNHHALYKNDFKKMVTTECPQFVQNINIENLFRELDINSDNAINFEEFLAMVIKVGVASHKDSHKE chain 2: MANKAPSQMERSITTIIDTFHQYSRKEGHPDTLSKKEFRQMVEAQLATFMKKEKRNEALINDIMEDLDTAQDNQLSFEECMMLMAKLIFACHEKLHENNPRGHGHSHGKGCGK
– | binds | recombinant mouse CD69, His-tagged extracellular domain (domain or fragment) NVGKYNCPGLYEKLESSDHHVATCKNEWISYKRTCYFFSTTTKSWALAQRSCSEDAATLAVIDSEKDMTFLKRYSGELEHWIGLKNEANQTWKWANGKEFNSWFNLTGSGRCVSVNHKNVTAVDCEANFHWVCSKPSR
